Measured values: publication PMC10967774
No constants are given. Whether binding was seen depends on the method and setting. Binding seen in cells or lysates may run through a third protein. Some results given as binding are weak or reduced against the parent protein; the word gives no strength. Tags and fused reporters may be left off the sequences shown.

T1: WRKY53 fused to a half of YFP (pBiFCt-2in1-NN) (Arabidopsis thaliana) (UniProt Q9SUP6)
T1 sequence: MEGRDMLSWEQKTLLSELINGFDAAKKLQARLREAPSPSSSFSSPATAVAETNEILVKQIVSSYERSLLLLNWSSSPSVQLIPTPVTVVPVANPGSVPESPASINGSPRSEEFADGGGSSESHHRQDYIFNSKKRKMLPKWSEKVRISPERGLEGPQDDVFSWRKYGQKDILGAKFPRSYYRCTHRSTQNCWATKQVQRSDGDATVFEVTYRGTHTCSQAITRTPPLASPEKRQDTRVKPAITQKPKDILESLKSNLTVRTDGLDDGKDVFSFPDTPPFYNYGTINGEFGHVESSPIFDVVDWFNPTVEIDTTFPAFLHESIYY


Tests used:
[1] = molecular target: T1, WRKY53 fused to a half of YFP (pBiFCt-2in1-NN) (Arabidopsis thaliana); assay: split reporter; ratiometric BiFC (YFP halves, pBiFCt-2in1 constructs, internal RFP control) in Agrobacterium-infiltrated N. benthamiana leaves; confocal microscopy 2 days after infiltration
[2] = molecular target: T1, WRKY53 fused to a half of YFP (pBiFCt-2in1-NN) (Arabidopsis thaliana); assay: split reporter; ratiometric BiFC (YFP halves, pBiFCt-2in1-NN, internal RFP control) in transiently transformed Arabidopsis protoplasts; read by flow cytometry (CytoFLEX) 1 day after transfection

binding [1]	binding [2]	Binder
binds	binds	CAT2 subunit fused to a half of YFP (pBiFCt-2in1-NN) (enzyme, UniProt P25819 1-492) MDPYKYRPASSYNSPFFTTNSGAPVWNNNSSMTVGPRGPILLEDYHLVEKLANFDRERIPERVVHARGASAKGFFEVTHDISNLTCADFLRAPGVQTPVIVRFSTVIHERGSPETLRDPRGFAVKFYTREGNFDLVGNNFPVFFIRDGMKFPDMVHALKPNPKSHIQENWRILDFFSHHPESLNMFTFLFDDIGIPQDYRHMDGSGVNTYMLINKAGKAHYVKFHWKPTCGVKSLLEEDAIRVGGTNHSHATQDLYDSIAAGNYPEWKLFIQIIDPADEDKFDFDPLDVTKTWPEDILPLQPVGRMVLNKNIDNFFAENEQLAFCPAIIVPGIHYSDDKLLQTRVFSYADTQRHRLGPNYLQLPVNAPKCAHHNNHHEGFMNFMHRDEEVNYFPSRYDQVRHAEKYPTPPAVCSGKRERCIIEKENNFKEPGERYRTFTPERQERFIQRWIDALSDPRITHEIRSIWISYWSQADKSLGQKLASRLNVRPSI
binds	binds	APX1 fused to a half of YFP (pBiFCt-2in1-NN) (enzyme, UniProt Q05431 1-250) MTKNYPTVSEDYKKAVEKCRRKLRGLIAEKNCAPIMVRLAWHSAGTFDCQSRTGGPFGTMRFDAEQAHGANSGIHIALRLLDPIREQFPTISFADFHQLAGVVAVEVTGGPDIPFHPGREDKPQPPPEGRLPDATKGCDHLRDVFAKQMGLSDKDIVALSGAHTLGRCHKDRSGFEGAWTSNPLIFDNSYFKELLSGEKEGLLQLVSDKALLDDPVFRPLVEKYAADEDAFFADYAEAHMKLSELGFADA
binds	binds	CAT3 subunit fused to a half of YFP (pBiFCt-2in1-NN) (enzyme, UniProt Q42547 1-492) MDPYKYRPSSAYNAPFYTTNGGAPVSNNISSLTIGERGPVLLEDYHLIEKVANFTRERIPERVVHARGISAKGFFEVTHDISNLTCADFLRAPGVQTPVIVRFSTVVHERASPETMRDIRGFAVKFYTREGNFDLVGNNTPVFFIRDGIQFPDVVHALKPNPKTNIQEYWRILDYMSHLPESLLTWCWMFDDVGIPQDYRHMEGFGVHTYTLIAKSGKVLFVKFHWKPTCGIKNLTDEEAKVVGGANHSHATKDLHDAIASGNYPEWKLFIQTMDPADEDKFDFDPLDVTKIWPEDILPLQPVGRLVLNRTIDNFFNETEQLAFNPGLVVPGIYYSDDKLLQCRIFAYGDTQRHRLGPNYLQLPVNAPKCAHHNNHHEGFMNFMHRDEEINYYPSKFDPVRCAEKVPTPTNSYTGIRTKCVIKKENNFKQAGDRYRSWAPDRQDRFVKRWVEILSEPRLTHEIRGIWISYWSQADRSLGQKLASRLNVRPSI
